Experimental data: PubChem BioAssay AID504805 (Drosophila RNAi Screening Center, 2011)
Test: 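Knock-downs that cause poly(A) RNA to build up in the nucleus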 (primary screen). Cells: Drosophila S2R+ cells. Reagents: long dsRNA against Drosophila genes, 0.25 µg dsRNA per well. Time to read-out: 4 days. Read-out: 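Microscope images of cells stained for poly(A) RNA with a fluorescent oligo-dT probe and for DNA, assessed visually, with a phenotype description given for each replicate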.
Only reagents picked out of a larger screen are listed. 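Phenotypes are words from visual inspection of images, not measured scores.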

After knock-down of dpr11 (defective proboscis extension response 11) [DRSC12562], the record shows phenotype, replicate 1 = poly(A) RNA held back in the nucleus.
dati (datilografo) [DRSC17153] scored phenotype, replicate 1 = poly(A) RNA held back in the nucleus.
After knock-down of E23 (Early gene at 23) [DRSC00425], the record shows phenotype, replicate 1 = poly(A) RNA held back in the nucleus.
CG1136 [DRSC08184] scored phenotype, replicate 1 = poly(A) RNA held back in the nucleus.
After knock-down of mTerf3 (mitochondrial transcription termination factor 3) [DRSC11759] the results were phenotype, replicate 1 = poly(A) RNA held back in the nucleus.
With knock-down of CG11035 [DRSC14287], the record shows phenotype, replicate 1 = poly(A) RNA held back in the nucleus.
mam (mastermind) [DRSC07648] showed phenotype, replicate 1 = clumps in the cytoplasm; phenotype, replicate 2 = poly(A) RNA held back in the nucleus.
Depletion of CG12075 [DRSC17801] gave: phenotype, replicate 1 = poly(A) RNA held back in the nucleus.
After knock-down of RpS8 (Ribosomal protein S8) [DRSC16318], the screen gave phenotype, replicate 1 = poly(A) RNA held back in the nucleus.
Depletion of rost (rolling stone) [DRSC03603] resulted in: phenotype, replicate 1 = poly(A) RNA held back in the nucleus.
Silencing of sns (sticks and stones) [DRSC06423] resulted in: phenotype, replicate 1 = poly(A) RNA held back in the nucleus; phenotype, replicate 2 = cells look to be dying.
sns (sticks and stones) [DRSC07692] gave phenotype, replicate 1 = poly(A) RNA held back in the nucleus.
With knock-down of CG12096 [DRSC21692] the results were phenotype, replicate 1 = poly(A) RNA held back in the nucleus.
CG5674 [DRSC02874] scored phenotype, replicate 1 = poly(A) RNA held back in the nucleus.
After knock-down of RpL32 (Ribosomal protein L32) [DRSC16835], the record shows phenotype, replicate 1 = poly(A) RNA held back in the nucleus.
lig (lingerer) [DRSC07247] showed phenotype, replicate 1 = poly(A) RNA held back in the nucleus.
Against Fhos (Formin homology 2 domain containing) [DRSC10546], the values are phenotype, replicate 1 = poly(A) RNA held back in the nucleus.
Depletion of pico [DRSC19430] resulted in: phenotype, replicate 1 = poly(A) RNA held back in the nucleus.
With knock-down of CR31824 (pseudo) [DRSC01517] the results were phenotype, replicate 1 = poly(A) RNA held back in the nucleus.
CG10510 [DRSC11614] scored phenotype, replicate 1 = poly(A) RNA held back in the nucleus.
Cdk12 (Cyclin-dependent kinase 12) [DRSC11836] showed phenotype, replicate 1 = poly(A) RNA held back in the nucleus.
CG34159 [DRSC02885] gave phenotype, replicate 1 = poly(A) RNA held back in the nucleus.
Against Dys (Dystrophin) [DRSC13360], the entry reads phenotype, replicate 1 = poly(A) RNA held back in the nucleus.
With knock-down of Saf-B (Scaffold attachment factor B) [DRSC16167], the screen gave phenotype, replicate 1 = poly(A) RNA held back in the nucleus; phenotype, replicate 2 = poly(A) RNA held back in the nucleus.
Against CG32267 [DRSC21561], the entry reads phenotype, replicate 1 = poly(A) RNA held back in the nucleus.
Knock-down of CG3592 [DRSC18315] resulted in: phenotype, replicate 1 = poly(A) RNA held back in the nucleus.
Depletion of mbl (muscleblind) [DRSC06449] gave: phenotype, replicate 1 = poly(A) RNA held back in the nucleus.
After knock-down of CG9630 [DRSC16527] the results were phenotype, replicate 1 = poly(A) RNA held back in the nucleus.
Depletion of fid (fire dancer) [DRSC16464] resulted in: phenotype, replicate 1 = poly(A) RNA held back in the nucleus.
For CG1304 [DRSC20494], the values are phenotype, replicate 1 = poly(A) RNA held back in the nucleus.
CG15458 [DRSC20529] scored phenotype, replicate 1 = poly(A) RNA held back in the nucleus.
Depletion of hoip (hoi-polloi) [DRSC03546] gave: phenotype, replicate 1 = rounded cells with spots of RNA in the cytoplasm; phenotype, replicate 2 = rounded cells with spots of RNA in the cytoplasm.
CG8461 [DRSC16424] scored phenotype, replicate 1 = poly(A) RNA held back in the nucleus.
After knock-down of crn (crooked neck) [DRSC18184], the screen gave phenotype, replicate 1 = poly(A) RNA held back in the nucleus.
For CG8924 [DRSC20122] the deposit lists phenotype, replicate 1 = poly(A) RNA held back in the nucleus; phenotype, replicate 2 = poly(A) RNA held back in the nucleus.
Knock-down of S1P (Site-1 protease) [DRSC11810] gave: phenotype, replicate 1 = poly(A) RNA held back in the nucleus.
For Gcn5 (Gcn5 acetyltransferase) [DRSC11248] the deposit lists phenotype, replicate 1 = poly(A) RNA held back in the nucleus.
Silencing of CG31760 [DRSC02590] resulted in: phenotype, replicate 1 = poly(A) RNA held back in the nucleus.
Against CG9624 [DRSC16523], the values are phenotype, replicate 1 = poly(A) RNA held back in the nucleus.
Against CG44838 [DRSC10371], the entry reads phenotype, replicate 1 = poly(A) RNA held back in the nucleus.
Depletion of Alg14 (ALG14, UDP-N-acetylglucosaminyltransferase subunit) [DRSC19983] gave: phenotype, replicate 1 = poly(A) RNA held back in the nucleus.
Silencing of CG8172 [DRSC22113] resulted in: phenotype, replicate 1 = poly(A) RNA held back in the nucleus.
With knock-down of CG14839 [DRSC14963], the record shows phenotype, replicate 1 = poly(A) RNA held back in the nucleus.
Against RpL22 (Ribosomal protein L22) [DRSC18707], the entry reads phenotype, replicate 1 = poly(A) RNA held back in the nucleus; phenotype, replicate 2 = poly(A) RNA held back in the nucleus.
Silencing of mira (miranda) [DRSC16998] gave: phenotype, replicate 1 = poly(A) RNA held back in the nucleus.
Against CG10352 [DRSC19353] the deposit lists phenotype, replicate 1 = poly(A) RNA held back in the nucleus.

Reprinted from the entries so far, 3 entries:
RpL22 (Ribosomal protein L22) [DRSC18707] | phenotype, replicate 1: poly(A) RNA held back in the nucleus; phenotype, replicate 2: poly(A) RNA held back in the nucleus
mira (miranda) [DRSC16998] | phenotype, replicate 1: poly(A) RNA held back in the nucleus
CG10352 [DRSC19353] | phenotype, replicate 1: poly(A) RNA held back in the nucleus
